Source: paper doi:10.1101/348953

Chains of the proteins cited; added tags and fusions are not shown. Residues count along the entry.
UniProt Q8BPM0: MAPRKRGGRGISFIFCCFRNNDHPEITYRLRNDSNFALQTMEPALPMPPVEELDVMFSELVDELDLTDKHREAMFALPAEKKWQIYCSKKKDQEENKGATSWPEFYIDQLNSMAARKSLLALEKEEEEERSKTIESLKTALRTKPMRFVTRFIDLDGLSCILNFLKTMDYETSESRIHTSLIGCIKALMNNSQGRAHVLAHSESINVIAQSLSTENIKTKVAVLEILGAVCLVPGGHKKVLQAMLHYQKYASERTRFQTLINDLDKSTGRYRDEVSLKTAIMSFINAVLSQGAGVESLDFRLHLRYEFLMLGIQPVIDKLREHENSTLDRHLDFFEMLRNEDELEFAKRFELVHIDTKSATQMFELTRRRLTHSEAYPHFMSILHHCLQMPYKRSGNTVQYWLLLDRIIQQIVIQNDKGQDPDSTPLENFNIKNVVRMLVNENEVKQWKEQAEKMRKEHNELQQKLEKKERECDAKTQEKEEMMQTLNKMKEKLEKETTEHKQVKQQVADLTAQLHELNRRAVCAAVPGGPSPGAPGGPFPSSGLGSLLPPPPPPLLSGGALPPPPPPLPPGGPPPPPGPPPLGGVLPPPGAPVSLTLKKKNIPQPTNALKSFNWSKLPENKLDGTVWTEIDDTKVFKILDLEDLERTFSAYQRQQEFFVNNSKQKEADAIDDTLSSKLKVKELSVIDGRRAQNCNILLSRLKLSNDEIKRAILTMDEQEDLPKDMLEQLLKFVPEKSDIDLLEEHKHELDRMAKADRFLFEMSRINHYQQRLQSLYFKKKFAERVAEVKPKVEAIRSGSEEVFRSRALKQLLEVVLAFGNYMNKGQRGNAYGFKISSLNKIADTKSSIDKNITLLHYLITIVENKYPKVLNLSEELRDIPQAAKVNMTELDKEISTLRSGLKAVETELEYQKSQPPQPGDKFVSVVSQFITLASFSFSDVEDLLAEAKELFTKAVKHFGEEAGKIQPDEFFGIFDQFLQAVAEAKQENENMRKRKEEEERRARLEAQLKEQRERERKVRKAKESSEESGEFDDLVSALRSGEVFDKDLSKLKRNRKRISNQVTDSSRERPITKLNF
UniProt Q9JKS4: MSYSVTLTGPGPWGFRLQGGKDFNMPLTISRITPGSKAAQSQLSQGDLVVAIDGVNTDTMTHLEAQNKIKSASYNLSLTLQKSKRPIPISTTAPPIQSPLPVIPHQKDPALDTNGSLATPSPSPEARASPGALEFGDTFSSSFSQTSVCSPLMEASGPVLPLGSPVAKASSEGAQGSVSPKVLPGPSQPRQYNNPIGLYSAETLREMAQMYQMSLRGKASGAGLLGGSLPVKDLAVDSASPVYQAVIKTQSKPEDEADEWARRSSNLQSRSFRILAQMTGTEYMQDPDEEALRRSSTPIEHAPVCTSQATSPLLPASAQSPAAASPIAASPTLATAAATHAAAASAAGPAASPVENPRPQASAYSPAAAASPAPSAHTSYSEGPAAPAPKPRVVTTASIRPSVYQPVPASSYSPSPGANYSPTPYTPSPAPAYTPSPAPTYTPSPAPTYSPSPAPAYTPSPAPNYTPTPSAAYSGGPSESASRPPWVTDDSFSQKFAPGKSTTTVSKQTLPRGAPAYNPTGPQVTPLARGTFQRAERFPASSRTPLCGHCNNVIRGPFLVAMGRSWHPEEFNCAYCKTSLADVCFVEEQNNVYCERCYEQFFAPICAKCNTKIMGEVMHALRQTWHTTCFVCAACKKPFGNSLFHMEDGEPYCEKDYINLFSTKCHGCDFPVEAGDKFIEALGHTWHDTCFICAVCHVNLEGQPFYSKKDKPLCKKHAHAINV
UniProt Q9QZQ1: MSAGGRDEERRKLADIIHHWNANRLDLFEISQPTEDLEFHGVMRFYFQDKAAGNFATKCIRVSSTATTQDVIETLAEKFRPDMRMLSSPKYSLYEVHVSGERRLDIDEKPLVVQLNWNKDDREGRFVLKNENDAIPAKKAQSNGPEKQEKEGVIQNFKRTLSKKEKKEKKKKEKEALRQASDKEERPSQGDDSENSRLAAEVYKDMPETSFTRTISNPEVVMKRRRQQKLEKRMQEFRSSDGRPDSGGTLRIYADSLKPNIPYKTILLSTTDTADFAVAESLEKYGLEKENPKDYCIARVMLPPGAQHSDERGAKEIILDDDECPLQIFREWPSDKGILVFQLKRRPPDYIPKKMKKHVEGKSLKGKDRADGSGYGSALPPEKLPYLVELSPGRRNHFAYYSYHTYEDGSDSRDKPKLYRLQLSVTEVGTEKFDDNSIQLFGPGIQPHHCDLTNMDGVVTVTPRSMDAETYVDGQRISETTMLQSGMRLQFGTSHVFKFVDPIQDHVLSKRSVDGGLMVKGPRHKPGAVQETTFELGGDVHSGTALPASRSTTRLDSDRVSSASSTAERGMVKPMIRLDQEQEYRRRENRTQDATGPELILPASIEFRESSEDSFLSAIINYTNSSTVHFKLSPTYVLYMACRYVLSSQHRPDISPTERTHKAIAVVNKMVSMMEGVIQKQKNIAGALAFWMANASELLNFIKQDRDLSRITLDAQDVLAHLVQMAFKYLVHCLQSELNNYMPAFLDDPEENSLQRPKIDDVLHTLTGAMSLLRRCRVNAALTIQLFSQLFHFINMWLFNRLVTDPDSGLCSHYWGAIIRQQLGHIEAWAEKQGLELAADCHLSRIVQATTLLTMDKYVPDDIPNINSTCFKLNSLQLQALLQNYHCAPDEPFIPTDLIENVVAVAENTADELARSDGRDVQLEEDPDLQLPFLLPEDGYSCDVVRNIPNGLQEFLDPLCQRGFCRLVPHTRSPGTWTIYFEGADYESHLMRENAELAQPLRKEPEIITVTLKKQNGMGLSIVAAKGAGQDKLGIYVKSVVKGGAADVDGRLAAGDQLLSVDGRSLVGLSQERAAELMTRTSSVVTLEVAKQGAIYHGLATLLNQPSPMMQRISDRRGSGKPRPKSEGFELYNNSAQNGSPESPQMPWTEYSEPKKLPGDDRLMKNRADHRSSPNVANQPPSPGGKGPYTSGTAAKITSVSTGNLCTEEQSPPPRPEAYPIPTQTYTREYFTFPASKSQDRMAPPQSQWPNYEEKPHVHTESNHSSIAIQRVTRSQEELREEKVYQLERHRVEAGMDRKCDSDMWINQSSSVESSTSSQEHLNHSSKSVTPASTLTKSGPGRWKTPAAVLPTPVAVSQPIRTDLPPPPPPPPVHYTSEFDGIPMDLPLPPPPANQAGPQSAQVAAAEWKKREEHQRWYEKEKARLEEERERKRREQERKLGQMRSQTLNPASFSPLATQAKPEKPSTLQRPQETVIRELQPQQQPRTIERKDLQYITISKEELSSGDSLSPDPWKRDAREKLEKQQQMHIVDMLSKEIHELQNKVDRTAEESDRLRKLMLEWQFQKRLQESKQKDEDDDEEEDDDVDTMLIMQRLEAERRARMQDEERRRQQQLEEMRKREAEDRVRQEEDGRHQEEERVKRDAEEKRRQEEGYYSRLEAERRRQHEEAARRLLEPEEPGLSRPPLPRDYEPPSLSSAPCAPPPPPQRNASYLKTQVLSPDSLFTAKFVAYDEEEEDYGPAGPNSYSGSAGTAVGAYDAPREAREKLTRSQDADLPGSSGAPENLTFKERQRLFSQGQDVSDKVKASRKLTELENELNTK
UniProt P09055, residues 21-798: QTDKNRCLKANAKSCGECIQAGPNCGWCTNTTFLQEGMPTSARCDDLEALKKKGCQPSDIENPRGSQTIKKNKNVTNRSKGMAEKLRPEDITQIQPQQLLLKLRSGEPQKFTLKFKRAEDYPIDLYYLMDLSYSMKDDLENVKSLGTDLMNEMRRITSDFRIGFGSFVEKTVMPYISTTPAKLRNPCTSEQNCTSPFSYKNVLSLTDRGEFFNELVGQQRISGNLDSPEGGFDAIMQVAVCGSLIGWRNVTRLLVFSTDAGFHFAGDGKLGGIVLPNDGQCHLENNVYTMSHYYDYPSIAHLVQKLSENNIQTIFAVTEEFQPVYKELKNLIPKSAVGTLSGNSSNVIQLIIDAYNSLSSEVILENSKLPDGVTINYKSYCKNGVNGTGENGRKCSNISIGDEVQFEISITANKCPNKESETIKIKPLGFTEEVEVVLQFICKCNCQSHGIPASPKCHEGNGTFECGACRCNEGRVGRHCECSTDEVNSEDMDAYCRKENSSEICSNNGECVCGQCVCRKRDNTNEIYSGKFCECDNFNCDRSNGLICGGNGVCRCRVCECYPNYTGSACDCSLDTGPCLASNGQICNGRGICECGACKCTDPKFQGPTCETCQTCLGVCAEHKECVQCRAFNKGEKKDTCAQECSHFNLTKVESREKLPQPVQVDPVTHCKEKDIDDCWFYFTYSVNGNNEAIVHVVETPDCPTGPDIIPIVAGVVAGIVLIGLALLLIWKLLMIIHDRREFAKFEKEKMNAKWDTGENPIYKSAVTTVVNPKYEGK
UniProt Q64727: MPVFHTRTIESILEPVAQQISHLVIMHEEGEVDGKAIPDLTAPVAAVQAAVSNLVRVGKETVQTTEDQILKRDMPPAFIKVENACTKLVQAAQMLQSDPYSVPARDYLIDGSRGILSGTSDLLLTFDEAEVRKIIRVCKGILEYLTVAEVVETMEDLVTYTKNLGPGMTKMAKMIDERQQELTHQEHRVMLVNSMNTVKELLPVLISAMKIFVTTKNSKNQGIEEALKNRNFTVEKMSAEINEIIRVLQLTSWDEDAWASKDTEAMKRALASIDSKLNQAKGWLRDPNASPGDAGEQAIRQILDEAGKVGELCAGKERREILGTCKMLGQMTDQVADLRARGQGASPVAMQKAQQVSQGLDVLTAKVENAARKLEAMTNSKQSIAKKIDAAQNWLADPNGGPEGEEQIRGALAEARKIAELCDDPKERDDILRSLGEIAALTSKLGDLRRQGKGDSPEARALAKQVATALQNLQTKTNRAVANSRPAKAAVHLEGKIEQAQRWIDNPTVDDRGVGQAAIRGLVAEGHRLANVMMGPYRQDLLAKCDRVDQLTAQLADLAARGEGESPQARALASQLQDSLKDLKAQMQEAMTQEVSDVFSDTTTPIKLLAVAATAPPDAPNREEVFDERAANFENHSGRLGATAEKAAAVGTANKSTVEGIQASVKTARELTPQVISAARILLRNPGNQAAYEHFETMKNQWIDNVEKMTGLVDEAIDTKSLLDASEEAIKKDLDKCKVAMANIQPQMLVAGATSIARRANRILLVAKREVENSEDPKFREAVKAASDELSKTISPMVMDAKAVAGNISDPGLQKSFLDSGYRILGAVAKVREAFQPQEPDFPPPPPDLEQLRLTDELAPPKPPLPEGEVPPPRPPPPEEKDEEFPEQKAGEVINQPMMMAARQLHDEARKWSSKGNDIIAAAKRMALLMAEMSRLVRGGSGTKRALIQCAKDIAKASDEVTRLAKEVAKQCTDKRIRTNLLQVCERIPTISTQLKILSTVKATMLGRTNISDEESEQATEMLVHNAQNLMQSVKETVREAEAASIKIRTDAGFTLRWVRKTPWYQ
UniProt Q02248: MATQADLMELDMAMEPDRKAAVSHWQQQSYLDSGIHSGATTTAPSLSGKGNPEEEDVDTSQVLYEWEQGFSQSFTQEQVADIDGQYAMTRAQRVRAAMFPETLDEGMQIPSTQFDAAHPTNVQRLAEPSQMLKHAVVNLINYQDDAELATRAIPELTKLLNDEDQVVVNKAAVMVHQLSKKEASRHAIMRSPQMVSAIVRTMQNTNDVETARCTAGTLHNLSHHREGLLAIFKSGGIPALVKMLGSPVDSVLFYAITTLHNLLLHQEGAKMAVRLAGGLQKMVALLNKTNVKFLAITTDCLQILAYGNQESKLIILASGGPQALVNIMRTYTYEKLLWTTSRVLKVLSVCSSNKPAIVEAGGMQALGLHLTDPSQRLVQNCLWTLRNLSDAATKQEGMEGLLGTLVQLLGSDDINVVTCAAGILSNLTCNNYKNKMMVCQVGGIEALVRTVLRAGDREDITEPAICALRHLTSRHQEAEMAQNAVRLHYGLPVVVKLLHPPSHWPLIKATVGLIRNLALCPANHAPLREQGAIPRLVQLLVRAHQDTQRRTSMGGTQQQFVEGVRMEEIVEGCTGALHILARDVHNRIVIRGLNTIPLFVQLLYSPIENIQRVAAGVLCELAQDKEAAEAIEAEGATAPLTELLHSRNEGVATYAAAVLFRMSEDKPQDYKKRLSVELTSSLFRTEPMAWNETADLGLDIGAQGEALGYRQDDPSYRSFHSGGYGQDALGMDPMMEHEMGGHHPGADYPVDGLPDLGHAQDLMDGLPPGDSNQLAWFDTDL

B1: TJP2 (protein, UniProt Q9Z0U1 1-1167)
chain: MEEVIWEQYTVTLQKDSKRGFGIAVSGGRDNPHFENGETSIVISDVLPGGPADGLLQENDRVVMVNGTPMEDVLHSFAVQQLRKSGKIAAIVVKRPRKVQVAPLQGSPPLSHDDRGFEVIEEFDGRSFRSGYSERSRHSSHDMLSHSWEGNRERGRPHQRTQSRERERSRGRSLERGLDQEDYGRSRERSRGRSLERGLDRDFVSRDHSRGRSIDRDYDRDYERSYHEAYEPDYGGGYSPSYDRRAHPETRYERSRSREHLRSRSPSPESRSRHEHKGQHDPDRPIGVLLTKSKANEEYGLRLGSQIFIKEMTRTGLATKDGNLHEGDIILKINGTVTENMSLTDARKLIEKSRGKLQLVVLRDSKQTLINIPALNDSDSEVEDISEIESNRSFSPEERRQQYSDQDYHSSTEKLKERPSSREETSGRLSRMGATPTPFKSTGDITAAGVTEASREPRYQEEGPVPQPRTAPRVFLRPSPEDEAIYGPNTKMVRFKKGDSVGLRLAGGNDVGIFVAGIQEGTSAEQEGLQEGDQILKVNTQDFRGLVREDAVLYLLEIPKGETVTILAQSRADVYRDILACGRGDSFFIRSHFECEKETPQSLAFTRGEVFRVVDTLYDGKLGHWLAVRIGNELEKGLIPNKSRAEQMASVQNAQRENAGDRADFWRMRGQRSSGGVKKNLRKSREDLAAAVSVSTKFPAYEKVLLREAGFKRPVVLFGPIADIAMERLATELPDLFQTAKTEPKDAGSEKSSGVVRLNTVRQIIEQDKHALLDVTPKAVDLLNYTQWFPIVIFFNPDSRQGVKTIRQRLSPTSNKSSRKLFDQANKLKKTCSHLFTATINVNSANDGWFGSLKDSIQQQQNEAVWVSEGKMEGMDDDAEDRMSYLTAMGADYLSCDSRLISDFEDTDGEGGAYTDNELEEPAEEPLVSSITRSSEPVQHEENIRKSSPEPRAQMRRAASRDQLRDASPPPAFKPEPPKARSQNREDSFDYSKSNLPATAGSEIPGGSTKGYPPPIAAKPAFGRPILKPSTPVPMPESEEVGESTEEQEDAPRSVLGRVKIFEKMDHKAKLQRMQELQEAQNARIEIAQKHPDIYAVPIKAPKPDAGLPPHMSSRPPEPQKAPSRLYQDTRGSYGSDPEEEEYRQQLAAHSKRGYYSQPSRYRDTEL
B2: Synaptopodin 2 (SYNPO2) (protein, UniProt Q91YE8 1-1087)
chain: MGTGDFICISMTGGAPWGFRLQGGKEEQQPLQVAKIRSQSKASGSGLREGDEVVSINGNPCADLTYPEVIKLMEGITDSLHLLVKRPSSGTSETLDSESETTNHQHLTHEGPMESTTLQIQQATETQSEDFFLAPVQTKVPLTEDQSNAWGYAECPKEEQAPPMLGSQEGHLVEEVILRQKAEAGQPGHVVELQLSLSKERHQCTSGPIVTLQGNDKSTSPDPDWSSQLERTVHINSIPAPEKADTSLTSSTSSGRELRVIQGRDPGGAGLPQVEVILDCSDRLKAEECRLQTGRGCVASPVEGGRSEAPPSLVSFAVSSEGTEHGEDQRSGKDQSRPHKHRARHARLRRSESLSEKQVKEAKSKCKSIALLLTDAPNPNSKGVLMFKKRRRRARKYTLVSYGTGELEREEEEEEDQEAGDKDEISEVAFLGTSESEVDEELLSDVDDNTQVVNFDWDSGLVDIEKRLNRGDKMEMLPDTTGKGALMFAKRRERMEQFTAQNEEEKTGGMAGGGPDALQTDGLRTMTSYQRKEESVRMQSSVSESSFQMGRSLASVPQQNGFSGVSETAGAQRMFPMNRTAKPFLGSMNQPAAPFSPTRSVTSPISDFPAPPPYSAVSPPPEAFSRGVSSPVAGPAQPPPWPQPAPWSQPAFYDSSEQIASRDERIAVPAKRTGILQEAKRRGTTKPMFTFKETKVSPNPELLSLLQNAEGKRGTGGDSGPEEDYLSLGAEACNFMQSSAKQKTPPPVAPKPAVKSPSSSQPVAPVSPVWSPGVAPAQRPAFSTSNPPNPPQVTAVSSIKIAQPAAPPARPASALNLAGPFKGPQAVVVSHNYTPKPSAPTPLVNAAPAGAGGPSNELPGMSGKGAQLFAKRQSRMEKYVVDSDTVQAHTVRAQSPTPSLPASWKYSSNVRAPPPVAYNPIHSPSYPLAAIKSQPPGAQASKTSKKKGKKPLNTLDVMKHQPYQLNASLFTFQPPDSKDGLPQKSTVKVSSAPAMKQALPPRQANVGSPTNAQASSVYSVPAYTSQPNFFAAEATSPVSASPVPVSVPTSPKQESTSTSYFVAPRPKFSAKKSGVTVQVWKPSVVEE
B3: PDLIM3 (protein, UniProt O70209 1-316)
chain: MPQNVVLPGPAPWGFRLSGGIDFNQPLVITRITPGSKAAAANLCPGDVILAIDGFGTESMTHADAQDRIKAASYQLCLKIDRAETRLWSPQVSEDGKAHPFKINLEAEPQEFKPIGTAHNRRAQPFVAAANIDDKRQVVSASYNSPIGLYSTSNIQDALHGQLRGLIPGSLQNEPTASVPPQSDVYRMLHDNRDDPAAPRQSGSFRVLQDLVNDGPDDRPAGTRSVRAPVTKVHGGAGSAQRMPLCDKCGSGIVGAVVKARDKYRHPECFVCADCNLNLKQKGYFFVEGELYCETHARARTRPPEGYDTVTLYPKA
B4: PDLIM5 (protein, UniProt Q8CI51 1-591)
chain: MSNYSVSLVGPAPWGFRLQGGKDFNMPLTISSLKDGGKASQAHVRIGDVVLSIDGISAQGMTHLEAQNKIKACTGSLNMTLQRASAAAKSEPVSVQKGEPKEVVKPVPITSPAVSKVTSTTNMAYNKAPRPFGSVSSPKVTSIPSPSSAFTPAHAATSSHASPTPVAAATPLHLSASGLHVSANLSADQCSSPPNTGKPAVNVPRQPTVTSVCSESAQELAEGQRRGSQGDIKQQNGPPRKHIVERNTEFYHIPTHSDASKKRLIEDTEDWRPRTGTTQSRSFRILAQITGTEHLTESENDNTKKANSTQEPSQQPASSGASPLSASEGPESPGSSRPSVAGLRSAAAFKPVGSTSVKSPSWQRPNQAAPSTGRISNNARSSGTGASVGPPQPSDQDTLVQRAEHIPAGKRTPMCAHCNQVIRGPFLVALGKSWHPEEFNCAHCKNTMAYIGFVEEKGALYCELCYEKFFAPECGRCQRKILGEVINALKQTWHVSCFVCVACGKPIRNNVFHLEDGEPYCETDYYALFGTICRGCEFPIEAGDMFLEALGYTWHDTCFVCSVCCESLEGQTFFSKKDKPLCKKHAHSVNF
B5: FHL1 (protein, UniProt P97447 1-280)
chain: MSEKFDCHYCRDPLQGKKYVQKDGRHCCLKCFDKFCANTCVDCRKPISADAKEVHYKNRYWHDNCFRCAKCLHPLASETFVSKDGKILCNKCATREDSPRCKGCFKAIVAGDQNVEYKGTVWHKDCFTCSNCKQVIGTGSFFPKGEDFYCVTCHETKFAKHCVKCNKAITSGGITYQDQPWHAECFVCVTCSKKLAGQRFTAVEDQYYCVDCYKNFVAKKCAGCKNPITGFGKGSSVVAYEGQSWHDYCFHCKKCSVNLANKRFVFHNEQVYCPDCAKKL
B6: ZYX (protein, UniProt Q62523 1-564)
chain: MAAPRPPPAISVSVSAPAFYAPQKKFAPVVAPKPKVNPFRPGDSEPPVAAGAQRAQMGRVGEIPPPPPEDFPLPPPPLIGEGDDSEGALGGAFPPPPPPMIEEPFPPAPLEEDIFPSPPPPLEEEGGPEAPTQLPPQPREKVCSIDLEIDSLSSLLDDMTKNDPFKARVSSGYVPPPVATPFVPKPSTKPAPGGTAPLPPWKTPSSSQPPPQPQAKPQVQLHVQPQAKPHVQPQPVSSANTQPRGPLSQAPTPAPKFAPVAPKFTPVVSKFSPGAPSGPGPQPNQKMVPPDAPSSVSTGSPQPPSFTYAQQKEKPLVQEKQHPQPPPAQNQNQVRSPGGPGPLTLKEVEELEQLTQQLMQDMEHPQRQSVAVNESCGKCNQPLARAQPAVRALGQLFHITCFTCHQCQQQLQGQQFYSLEGAPYCEGCYTDTLEKCNTCGQPITDRMLRATGKAYHPQCFTCVVCACPLEGTSFIVDQANQPHCVPDYHKQYAPRCSVCSEPIMPEPGRDETVRVVALDKNFHMKCYKCEDCGKPLSIEADDNGCFPLDGHVLCRKCHSARAQT
B7: integrin ITGB5 (protein, UniProt O70309 24-798)
chain: GLNICTSGSATSCEECLLIHPKCAWCSKEYFGNPRSITSRCDLKANLIRNGCEGEIESPASSTHVLRNLPLSSKGSSATGSDVIQMTPQEIAVSLRPGEQTTFQLQVRQVEDYPVDLYYLMDLSLSMKDDLENIRSLGTKLAEEMRKLTSNFRLGFGSFVDKDISPFSYTAPRYQTNPCIGYKLFPNCVPSFGFRHLLPLTDRVDSFNEEVRKQRVSRNRDAPEGGFDAVLQAAVCKEKIGWRKDALHLLVFTTDDVPHIALDGKLGGLVQPHDGQCHLNEANEYTASNQMDYPSLALLGEKLAENNINLIFAVTKNHYMLYKNFTALIPGTTVEILHGDSKNIIQLIINAYSSIRAKVELSVWDQPEDLNLFFTATCQDGISYPGQRKCEGLKIGDTASFEVSVEARSCPGRQAAQSFTLRPVGFRDSLQVEVAYNCTCGCSTGLEPNSARCSGNGTYTCGLCECDPGYLGTRCECQEGENQSGYQNLCREAEGKPLCSGRGECSCNQCSCFESEFGRIYGPFCECDSFSCARNKGVLCSGHGECHCGECKCHAGYIGDNCNCSTDVSTCKAKDGQICSDRGRCVCGQCQCTEPGAFGETCEKCPTCPDACSSKRDCVECLLLHQGKPDNQTCHHQCKDEVITWVDTIVKDDQEAVLCFYKTAKDCVMMFSYTELPNGRSNLTVLREPECGSAPNAMTILLAVVGSILLIGMALLAIWKLLVTIHDRREFAKFQSERSRARYEMASNPLYRKPISTHTVDFAFNKFNKSYNGSV

Columns and labels:
[1] = target: Cdh2-BioID2 (mouse N-cadherin with BioID2-HA fused to the C-terminal tail) (mouse) (UniProt P15116); experiment: proximity labelling
[2] = target: Cdh2-BioID2 (mouse N-cadherin with BioID2-HA fused to the C-terminal tail) (mouse) (UniProt P15116); experiment: proximity labelling; remark: listed apart in the source

| Molecule | binding [1] | binding [2] |
| --- | --- | --- |
| BAG3 (from UniProt Q9JLV1 1-577) | binds |  |
| Cortactin (CTTN) (from UniProt Q60598 1-546) | binds |  |
| Dishevelled Associated Activator of Morphogenesis 1 (DAAM1) (from UniProt Q8BPM0 1-1077) | binds |  |
| LDB3 (from UniProt Q9JKS4 1-723) | binds |  |
| Supervillin (SVIL) (from UniProt Q8K4L3 1-2170) | binds |  |
| afadin (AFDN) (from UniProt Q9QZQ1 1-1820) | binds |  |
| integrin ITGB1 (from UniProt P09055 21-798) | binds |  |
| talin TLN1 (from UniProt P26039 1-2541) | binds |  |
| talin TLN2 (from UniProt Q71LX4 1-2375) | binds |  |
| vinculin (VCL) (from UniProt Q64727 1-1066) | binds |  |
| αE-catenin (CTNNA1) (from UniProt P26231 1-906) | binds |  |
| β-catenin (CTNNB1) (from UniProt Q02248 1-781) | binds |  |
| B1 |  | binds |
| B2 |  | binds |
| B3 |  | binds |
| B4 |  | binds |
| B5 |  | binds |
| B6 |  | binds |
| B7 |  | binds |

Like-named read-outs stand apart in the source and are kept apart here. No constants are given. Whether binding was seen depends on the method and setting. In cells and extracts the contact can be indirect. These calls come from enrichment with a bait or labelling near it, and not all partners need be listed.
